Here are results for 26 compounds from the supplement of paper PMC12542422.

Where a name gives a salt, the structure may show the parent alone. ± gives the standard deviation of the averaged measurements. The list shows a part of the results. Values are raw readings; no control value is given beside them.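 Across three biological replicates, HeLa cells were imaged for ribosome assembly using ENP1 staining (export block present or absent) or inducible tagged ribosomal protein reporters. Machine learning classified each cell's signal localization relative to DMSO controls. Hits exceeded the DMSO false-positive mean by five standard deviations and were then visually confirmed.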

This assay concerns HeLa K (ENP1 immunofluorescence, +LMB). Briefly: fraction of cells with nucleolar or nucleolar/nucleoplasmic ENP1 signal (MainHitrate); higher = more cells with nucleolar/nuclear readout signal (for ENP1 -LMB: less RNAPI inhibition; for +LMB ENP1 and RP reporters: stronger nuclear/nucleolar retention, i.e. ribosome biogenesis defect). The settings on record: concentration: 1 µM; treatment time: 6 h; ENP1 +LMB; leptomycin B: 20 nM, last 1.5 h.
Take `C=C1c2c(Cl)ccc(O)c2C(=O)C2=C(O)[C@]3(O)C(=O)C(C(N)=O)=C(O)[C@@H](N(C)C)[C@@H]3[C@@H](O)[C@H]12.O=C(O)c1cc(S(=O)(=O)O)ccc1O` [Meclocycline Sulfosalicylate]: the fraction was 0.132 ± 0.19.

Compound `O[C@@H]1CO[C@H]2[C@@H]1OC[C@@H]2O` [Isosorbide] gave a fraction of 0.0488 ± 0.064.

As to `O=NN(CCCl)C(=O)NC1CCCCC1` [Lomustine (CeeNU)], the fraction worked out at 0.109 ± 0.15.

Regarding `O=C(O)c1cc(=O)c2ccccc2o1` [Chromocarb], the fraction came to 0.0802 ± 0.12.

For the compound `CNC[C@@H](O)c1ccc(O)c(O)c1` [L-Adrenaline (Epinephrine)], the fraction was determined as 0.0787 ± 0.11.

Consider `CC(=O)[C@H]1CC[C@H]2[C@@H]3C[C@H](C)C4=CC(=O)CC[C@]4(C)[C@H]3[C@@H](O)C[C@]12C` [Medrysone], for which the fraction was 0.067 ± 0.067.

Consider `O=P(O)(O)C(O)(Cn1ccnc1)P(=O)(O)O` [Zoledronic Acid (Zoledronate)], for which the fraction turned out to be 0.0707 ± 0.046.

`CN1CCC(=C2c3ccccc3C=Cc3ccccc32)CC1` [Cyproheptadine HCl (Periactin)] gave a fraction of 0.133 ± 0.18.

With `N=C(N)NC(=N)NCCc1ccccc1` [Phenformin hydrochloride], the fraction stood at 0.143 ± 0.21.

On to `CNC(=O)CN(CCN(CCN(CC(=O)O)CC(=O)NC)CC(=O)O)CC(=O)O.O.[Gd]` [Gadodiamide (Omniscan)], for which the fraction came out at 0.0803 ± 0.085.

With `CCOc1ccc2nc(S(N)(=O)=O)sc2c1` [Ethoxzolamide], the fraction is 0.0833 ± 0.096.

`CN(C/C=C/C#CC(C)(C)C)Cc1cccc2ccccc12` [Terbinafine hydrochloride (Lamisil)] had a fraction of 0.135 ± 0.21.

Compound `CCCCCOC(=O)Nc1nc(=O)n([C@@H]2O[C@H](C)[C@@H](O)[C@H]2O)cc1F` [Capecitabine (Xeloda)] had a fraction of 0.0845 ± 0.057.

In turn, `CCOC(=O)[C@H](CCc1ccccc1)N[C@@H](C)C(=O)N1Cc2ccccc2C[C@H]1C(=O)O` [Quinapril HCl (Accupril)] displayed a fraction of 0.0496 ± 0.062.

For the compound `CC(C)(CO)[C@@H](O)C(=O)NCCC(=O)O` [Pantothenic acid (pantothenate)], the fraction was 0.0918 ± 0.12.

Consider `CCOC(=O)C1=C[C@]2(CC)CCCN3CCc4c(n1c1ccccc41)[C@@H]32` [Vinpocetine (Cavinton)], for which the fraction was found to be 0.0774 ± 0.083.

Compound `CS(=O)(=O)CCNCc1ccc(-c2ccc3ncnc(Nc4ccc(OCc5cccc(F)c5)c(Cl)c4)c3c2)o1` [Lapatinib] showed a fraction of 0.162 ± 0.24.

Turning to `CN(C)CCOc1ccc(/C(=C(/CCCl)c2ccccc2)c2ccccc2)cc1` [Toremifene Citrate (Fareston, Acapodene)], the fraction was found to be 0.103 ± 0.12.

Regarding `CN(C)[C@@H]1C(O)=C(C(N)=O)C(=O)[C@@]2(O)C(O)=C3C(=O)c4c(O)cccc4[C@@](C)(O)[C@H]3[C@H](O)[C@@H]12` [Oxytetracycline (Terramycin)], the fraction is 0.107 ± 0.14.

`NC(=O)OCC(COC(N)=O)c1ccccc1` [Felbamate] registered a fraction of 0.0433 ± 0.037.

For the compound `O=C1CCc2cc(OCCCCc3nnnn3C3CCCCC3)ccc2N1` [Cilostazol], the fraction came out at 0.0671 ± 0.037.

Consider `O=C(O)C1=CO[C@@H](O[C@@H]2O[C@H](CO)[C@@H](O)[C@H](O)[C@H]2O)[C@@H]2C(CO)=CC[C@H]12` [Geniposidic acid], for which the fraction turned out to be 0.126 ± 0.17.

Compound `O=C1NC(=O)C(c2ccccc2)(c2ccccc2)N1` [Phenytoin (Lepitoin)] had a fraction of 0.168 ± 0.26.

On to `CCN1CC(CCN2CCOCC2)C(c2ccccc2)(c2ccccc2)C1=O` (stereo unspecified) [Doxapram HCl], for which the fraction turned out to be 0.0985 ± 0.13.

Compound `C[C@]12C=CC(=O)C=C1CC[C@@H]1[C@@H]2[C@@H](O)C[C@@]2(C)[C@H]1CC[C@]2(O)C(=O)CO` [Prednisolone (Hydroretrocortine)] had a fraction of 0.162 ± 0.14.

Compound `C[C@H](Cn1cnc2c(N)ncnc21)OCP(=O)(O)O` [Tenofovir (Viread)] returned a fraction of 0.0927 ± 0.078.
